PubChem BioAssay AID1224826 | NIAID, 2016
Screen: 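Genes that change LPS-induced Tnf promoter activity in mouse macrophages when knocked down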 (primary screen). Cell system: RAW264.7 G9 macrophages from mouse bearing reporters for p65 (GFP) and the Tnf promoter (mCherry). Reagent: siRNA pool against mouse genes, 100 nM. Time to read-out: 16 h of LPS stimulation, after 2 days of siRNA transfection. Treatment: bacterial lipopolysaccharide (Salmonella minnesota R595), 10 ng/ml. Detection: 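Imaged Tnf reporter mCherry in nuclei, minus background, normalised per plate to the median and expressed as robust z-scores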. Reading the numbers: Tnf reporter robust z-score: higher = stronger Tnf promoter reporter signal after LPS. Active means: 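a well counts as active at a score of -1.3 or below (Tlr4 knock-down control median) or above 3 (raised signal); controls and wells holding fewer than 50 cells are excluded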. Calls: active = Tnf reporter clearly lowered or raised; inactive = no clear change in Tnf reporter.
In all, the deposit lists about 17,000 reagents; below is a part drawn at random. Of all reagents, about 1,110 (6.6%) are marked active. 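Active means lowered or raised reporter signal; replicate intensities are raw and not normalised per plate.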 A reagent listed more than once was tested more than once; the source does not tell the runs apart. Further read-outs or replicates are left out here.

gene knocked down	Tnf reporter robust z-score	fewer than 50 cells in well	Call
Fhod3 (GeneID 225288)	-1.4	enough cells in well	active
Gcnt3 (GeneID 72077)	-0.32	enough cells in well	inactive
Ptprs (GeneID 19280)	0.29	enough cells in well	inactive
Arhgap25 (GeneID 232201)	-1.09	enough cells in well	inactive
Timp1 (GeneID 21857)	0.3	enough cells in well	inactive
Copz1 (GeneID 56447)		fewer than 50 cells per well; well left out of calls	inactive
Anapc10 (GeneID 68999)	-0.38	enough cells in well	inactive
Or5h19 (GeneID 258319)	1.73	enough cells in well	inactive
Angptl1 (GeneID 72713)	1.52	enough cells in well	inactive
Tubg1 (GeneID 103733)	-0.91	enough cells in well	inactive
Gzma (GeneID 14938)	-0.42	enough cells in well	inactive
Ncmap (GeneID 230822)	-0.53	enough cells in well	inactive
Ist1 (GeneID 71955)		fewer than 50 cells per well; well left out of calls	inactive
Ptpn7 (GeneID 320139)	-0.52	enough cells in well	inactive
Lce1i (GeneID 76585)		fewer than 50 cells per well; well left out of calls	inactive
Cpne7 (GeneID 102278)	1.15	enough cells in well	inactive
Mgat5 (GeneID 107895)	0.1	enough cells in well	inactive
Efcab8 (GeneID 100504221)	1.07	enough cells in well	inactive
Alg13 (GeneID 67574)	1	enough cells in well	inactive
Clcnka (GeneID 12733)	-0.87	enough cells in well	inactive
Or9s15 (GeneID 258483)	-1.21	enough cells in well	inactive
Fabp7 (GeneID 12140)	0.73	enough cells in well	inactive
B9d2 (GeneID 232987)	0.29	enough cells in well	inactive
Ldlrad4 (GeneID 52662)	2.79	enough cells in well	inactive
Manf (GeneID 74840)	-1.25	enough cells in well	inactive
Or6c206 (GeneID 404321)		fewer than 50 cells per well; well left out of calls	inactive
Tktl2 (GeneID 74419)	1.76	enough cells in well	inactive
Tulp1 (GeneID 22157)	0.19	enough cells in well	inactive
Serpina3n (GeneID 20716)	-0.2	enough cells in well	inactive
Skint3 (GeneID 195564)	0.83	enough cells in well	inactive
Slc43a3 (GeneID 58207)		fewer than 50 cells per well; well left out of calls	inactive
Prss40 (GeneID 21756)		fewer than 50 cells per well; well left out of calls	inactive
Get3 (GeneID 56495)	-0.23	enough cells in well	inactive
Il22 (GeneID 50929)	-0.81	enough cells in well	inactive
Zkscan1 (GeneID 74570)	-0.38	enough cells in well	inactive
Trpd52l3 (GeneID 66745)	0.64	enough cells in well	inactive
Trpd52l3 (GeneID 66745)		fewer than 50 cells per well; well left out of calls	inactive
Tmem178 (GeneID 68027)		fewer than 50 cells per well; well left out of calls	inactive
Noc4l (GeneID 100608)	-0.78	enough cells in well	inactive
Vmn2r57 (GeneID 269902)	0.37	enough cells in well	inactive

Records above whose target name begins with T or t (7):
gene knocked down	Tnf reporter robust z-score	fewer than 50 cells in well	Call
Timp1 (GeneID 21857)	0.3	enough cells in well	inactive
Tubg1 (GeneID 103733)	-0.91	enough cells in well	inactive
Tktl2 (GeneID 74419)	1.76	enough cells in well	inactive
Tulp1 (GeneID 22157)	0.19	enough cells in well	inactive
Trpd52l3 (GeneID 66745)	0.64	enough cells in well	inactive
Trpd52l3 (GeneID 66745)		fewer than 50 cells per well; well left out of calls	inactive
Tmem178 (GeneID 68027)		fewer than 50 cells per well; well left out of calls	inactive
